The supplement of paper PMC8728848
The other results are listed elsewhere or left out.

Assays:
Assay in all cases: glycan array binding signal (z-score within array); higher = stronger binding
Details in all cases: glycan notation: IUPAC condensed, linker removed
[1] = target: Fuc(a1-2)[Gal(a1-3)]Gal(b1-4)GlcNAc(b1-2)Man(a1-3)[Fuc(a1-2)[Gal(a1-3)]Gal(b1-4)GlcNAc(b1-2)Man(a1-6)]Man(b1-4)GlcNAc(b1-4)GlcNAc
Summary of the method: (§1)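 Negative Z-scores can be read as non-binding. The Z-score is calculated within each array and then averaged across arrays of one protein sequence at different concentrations or buffers and across linkers. Arrays, 3228 in all, were curated from the Consortium for Functional Glycomics database and kept only where the protein sequence was available.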

[2] = target: Fuc(a1-2)[Gal(a1-3)]Gal(b1-4)GlcNAc(b1-2)Man(a1-3)[Fuc(a1-2)[Gal(a1-3)]Gal(b1-4)GlcNAc(b1-2)Man(a1-6)]Man(b1-4)GlcNAc(b1-4)[Fuc(a1-6)]GlcNAc
Summary of the method: as §1

[3] = target: Fuc(a1-2)[Gal(a1-3)]Gal(b1-4)GlcNAc(b1-3)GalNAc
Summary of the method: as §1

[4] = target: Fuc(a1-2)[Gal(a1-3)]Gal(b1-4)GlcNAc(b1-6)GalNAc
Summary of the method: as §1

[5] = target: Fuc(a1-2)[Gal(a1-3)]Gal(b1-4)[Fuc(a1-3)]Glc
Summary of the method: as §1

[6] = target: Fuc(a1-2)[Gal(a1-3)]Gal(b1-4)[Fuc(a1-3)]GlcNAc
Summary of the method: as §1

[7] = target: Fuc(a1-2)[Gal(a1-3)]Gal(b1-4)[Fuc(a1-3)]GlcNAc(b1-3)GalNAc
Summary of the method: as §1

[8] = target: Fuc(a1-2)[Gal(a1-4)]Gal(b1-4)GlcNAc
Summary of the method: as §1

[9] = target: Fuc(a1-2)[GalNAc(a1-3)]Gal
Summary of the method: as §1

[10] = target: Fuc(a1-2)[GalNAc(a1-3)]Gal(b1-3)GalNAc(a1-3)[Fuc(a1-2)]Gal(b1-4)GlcNAc
Summary of the method: as §1

[11] = target: Fuc(a1-2)[GalNAc(a1-3)]Gal(b1-3)GalNAc(b1-3)Gal(a1-4)Gal(b1-4)Glc
Summary of the method: as §1

[12] = target: Fuc(a1-2)[GalNAc(a1-3)]Gal(b1-3)GlcNAc
Summary of the method: as §1

[13] = target: Fuc(a1-2)[GalNAc(a1-3)]Gal(b1-3)GlcNAc(b1-2)Man(a1-3)[Fuc(a1-2)[GalNAc(a1-3)]Gal(b1-3)GlcNAc(b1-2)Man(a1-6)]Man(b1-4)GlcNAc(b1-4)GlcNAc
Summary of the method: as §1

[14] = target: Fuc(a1-2)[GalNAc(a1-3)]Gal(b1-3)GlcNAc(b1-2)Man(a1-3)[Fuc(a1-2)[GalNAc(a1-3)]Gal(b1-3)GlcNAc(b1-2)Man(a1-6)]Man(b1-4)GlcNAc(b1-4)[Fuc(a1-6)]GlcNAc
Summary of the method: as §1

[15] = target: Fuc(a1-2)[GalNAc(a1-3)]Gal(b1-3)GlcNAc(b1-3)GalNAc
Summary of the method: as §1

[16] = target: Fuc(a1-2)[GalNAc(a1-3)]Gal(b1-3)GlcNAc(b1-6)GalNAc
Summary of the method: as §1

[17] = target: Fuc(a1-2)[GalNAc(a1-3)]Gal(b1-4)Glc
Summary of the method: as §1

[18] = target: Fuc(a1-2)[GalNAc(a1-3)]Gal(b1-4)GlcNAc
Summary of the method: as §1

[19] = target: Fuc(a1-2)[GalNAc(a1-3)]Gal(b1-4)GlcNAc(b1-2)Man
Summary of the method: as §1

[20] = target: Fuc(a1-2)[GalNAc(a1-3)]Gal(b1-4)GlcNAc(b1-2)Man(a1-3)[Fuc(a1-2)[GalNAc(a1-3)]Gal(b1-4)GlcNAc(b1-2)Man(a1-6)]Man(b1-4)GlcNAc(b1-4)GlcNAc
Summary of the method: as §1

[21] = target: Fuc(a1-2)[GalNAc(a1-3)]Gal(b1-4)GlcNAc(b1-2)Man(a1-3)[Fuc(a1-2)[GalNAc(a1-3)]Gal(b1-4)GlcNAc(b1-2)Man(a1-6)]Man(b1-4)GlcNAc(b1-4)[Fuc(a1-6)]GlcNAc
Summary of the method: as §1

[22] = target: Fuc(a1-2)[GalNAc(a1-3)]Gal(b1-4)GlcNAc(b1-3)Gal(b1-4)GlcNAc
Summary of the method: as §1

[23] = target: Fuc(a1-2)[GalNAc(a1-3)]Gal(b1-4)GlcNAc(b1-3)Gal(b1-4)GlcNAc(b1-3)Gal(b1-4)GlcNAc
Summary of the method: as §1

[24] = target: Fuc(a1-2)[GalNAc(a1-3)]Gal(b1-4)GlcNAc(b1-3)GalNAc
Summary of the method: as §1

[25] = target: Fuc(a1-2)[GalNAc(a1-3)]Gal(b1-4)GlcNAc(b1-3)[Fuc(a1-2)[GalNAc(a1-3)]Gal(b1-4)GlcNAc(b1-6)]GalNAc
Summary of the method: as §1

[26] = target: Fuc(a1-2)[GalNAc(a1-3)]Gal(b1-4)GlcNAc(b1-6)GalNAc
Summary of the method: as §1

[27] = target: Fuc(a1-2)[GalNAc(a1-3)]Gal(b1-4)[Fuc(a1-3)]GlcNAc
Summary of the method: as §1

[28] = target: Fuc(a1-2)[GalNAc(a1-3)]Gal(b1-4)[Fuc(a1-3)]GlcNAc(b1-3)GalNAc
Summary of the method: as §1

[29] = target: Fuc(a1-2)[GalNAc(a1-4)]Gal(b1-4)GlcNAc
Summary of the method: as §1

[30] = target: Fuc(a1-2)[GalNAc(b1-3)]Gal
Summary of the method: as §1

B1: Protein L(A-C2) (Finegoldia magna), Q51912 (protein)
chain: ADEPIDLEKLEEKRDKENVGNLPKFDNEVKDGSENPMAKYPDFDDEASTRFETENNEFEEKKVVSDNFFDQSEHPFVENKEETPETPETDSEEEVTIKANLIFANGSTQTAEFKGTFEKATSEAYAYADTLKKDNGEYTVDVADKGYTLNIKFAGKEKTPEEPKEEVTIKANLIYADGKTQTAEFKGTFEEATAEAYRYADALKKDNGEYTVDVADKGYTLNIKFAGKEKTPEEPKEEVTIKANLIYADGKTQTAEFKGTFEEATAEAYRYADLLAKENGKYTVDVADKGYTLNIKFAGKEKTPEEPKEEVTIKANLIYADGKTQTAEFKGTFAEATAEAYRYADLLAKENGKYTADLEDGGYTINIRFAGKKVDEKPEEKEQVTIKENIYFEDGTVQTATFKGTFAEATAEAYRYADLLSKEHGKYTADLEDGGYTINIRFAGKEEPEETPEKPEVQDGYASYEEAEAAAKEALKNDDVNKSYTIRQGADGRYYYVLSPVEAEEEKPEAQNGYATYEEAEAAAKKALENDPINKSYSIRQGADGRYYYVLSPVEAE
glycan array binding signal (z-score) [1]: 0.179 | glycan array binding signal (z-score) [2]: 0.994 | glycan array binding signal (z-score) [3]: 6.17 | glycan array binding signal (z-score) [4]: -0.631 | glycan array binding signal (z-score) [5]: -0.668 | glycan array binding signal (z-score) [6]: 1.92 | glycan array binding signal (z-score) [7]: 1.74 | glycan array binding signal (z-score) [8]: -0.541 | glycan array binding signal (z-score) [9]: -0.96 | glycan array binding signal (z-score) [10]: -0.447 | glycan array binding signal (z-score) [11]: -0.93 | glycan array binding signal (z-score) [12]: -0.763 | glycan array binding signal (z-score) [13]: -0.22 | glycan array binding signal (z-score) [14]: -0.611 | glycan array binding signal (z-score) [15]: 0.96 | glycan array binding signal (z-score) [16]: -0.499 | glycan array binding signal (z-score) [17]: -0.792 | glycan array binding signal (z-score) [18]: -0.631 | glycan array binding signal (z-score) [19]: -0.555 | glycan array binding signal (z-score) [20]: 0.913 | glycan array binding signal (z-score) [21]: 0.519 | glycan array binding signal (z-score) [22]: -0.566 | glycan array binding signal (z-score) [23]: 1.09 | glycan array binding signal (z-score) [24]: -0.485 | glycan array binding signal (z-score) [25]: 0.896 | glycan array binding signal (z-score) [26]: -1.04 | glycan array binding signal (z-score) [27]: 3.52 | glycan array binding signal (z-score) [28]: 1.92 | glycan array binding signal (z-score) [29]: 0.129 | glycan array binding signal (z-score) [30]: -0.856
